Test results reported in PMC8825329.
These are yes or no findings as the source states them, for the method shown. In cells and extracts the contact can be indirect. Some binding calls cover weakened binding; strength is not graded here. Sequences can lack the tags named with a protein.

T1: LIP1 full-length ORF fused upstream of the N-terminal region of mVenus YFP (Arabidopsis thaliana) (UniProt Q9ZWT1)
T1 sequence: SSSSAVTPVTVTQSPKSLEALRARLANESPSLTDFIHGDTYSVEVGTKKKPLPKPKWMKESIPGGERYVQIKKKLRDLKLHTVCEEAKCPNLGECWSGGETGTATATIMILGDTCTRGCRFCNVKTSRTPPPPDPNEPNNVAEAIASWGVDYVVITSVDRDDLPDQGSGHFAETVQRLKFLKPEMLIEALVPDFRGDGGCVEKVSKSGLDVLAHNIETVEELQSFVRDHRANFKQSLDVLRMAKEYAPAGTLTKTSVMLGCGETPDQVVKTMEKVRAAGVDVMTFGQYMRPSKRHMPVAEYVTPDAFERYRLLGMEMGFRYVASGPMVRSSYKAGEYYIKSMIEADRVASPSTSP

B1: NFU4 full-length ORF fused upstream of the C-terminal region of mVenus YFP (protein, UniProt Q9LIG6 49-283)
chain: LNSRTKDSALPSLNSSLLAQKWNFLGGQRRTMFIQTQSTPNPSSLMFYPGKPVMEVGSADFPNVRSALGSPLAKSIYSIDGVVRVFFGSDFVTVTKSDDVSWDILKPEIFAAVMDFYSSGQPLFLDSQAAAAKDTAISEDDSETVAMIKELLETRIRPAVQDDGGDIEYCGFDPESGIVKLRMQGACSGCPSSSVTLKSGIENMLMHYVSEVKGVEQEFDGEDEEGTLSGEMRVE
B2: NFU5 full-length ORF fused upstream of the C-terminal region of mVenus YFP (protein, UniProt Q9C8J2 62-275)
chain: SSFPFNWIEQRRTMFIQTQSTPNPSSLMFSPGKPVMEIGSADFPNSRSAMSSPLAKAIFAIDGVVRVFYGSDFVTVTKSDDVTWDILKPDIFAVVMDFYSSGQPLFLDSQATAAKDTAIHEDDSETVAMIKELLETRIRPSVQDDGGDIEYCGFDTETGIVKLRMQGACSGCPSSSVTLKSGIENMLMHYVSEVKGVEQEFDGEEEGTSSGPME

Target: T1, LIP1 full-length ORF fused upstream of the N-terminal region of mVenus YFP (Arabidopsis thaliana)
Test: split reporter; BiFC with split mVenus YFP in Arabidopsis leaf protoplasts; LIP1-N (N-terminal YFP region) with NFU-C (C-terminal YFP region); imaged 20-24 h after transfection, MitoTracker co-stain

Binder | binding
B1 | binds
B2 | binds
